Source: PubChem BioAssay AID1259254 (NCATS, 2017)
Assay: 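Gene knock-downs that lead to re-replication, shown by excess G2 DNA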 (primary screen). Cell system: human HCT116 colorectal cancer cells. Reagents: single siRNA against human genes. Duration: 3 days. Measurement: 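Nuclei stained with Hoechst and imaged; cell-cycle phase assigned by DNA content; G2 share scaled per plate, non-targeting siRNA 0%, GMNN siRNA 100%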. Direction: G2 robust z-score: higher = more G2 cells, more excess DNA replication. Rule for the call: 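Active siRNAs have a G2 robust z of 5 or more median absolute deviations over the median, which in these data means about 38% or higher of GMNN control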.
This is a random part of about 59,000 reagents tested. About 1,550 of them (2.6%) count as active. 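G2 share is only a proxy for re-replication; each gene was hit by three separate siRNAs, and active genes were retested.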 Unmarked entries are inactive. Reagents against one gene are numbered here. Further read-outs or replicates are left out here. Reagent sequences are not shown. The record does not give: the amount of reagent.

Against TMEM63A #1, the entry reads G2 robust z-score -0.182.
With knock-down of TMEM63A #2 the results were G2 robust z-score 0.344.
For TMEM63A #3 the deposit lists G2 robust z-score -0.339.
Silencing of RPIA #1 resulted in: G2 robust z-score -0.69.
After knock-down of RPIA #2, the screen gave G2 robust z-score 4.13.
For RPIA #3, the values are G2 robust z-score 0.374.

A few values from the list:
Value of TMEM63A #1 under “G2 robust z-score”: -0.182
RPIA #2, G2 robust z-score → 4.13

The results go on:
Silencing of TMEM186 #1 resulted in: G2 robust z-score 3.23.
TMEM186 #2 scored G2 robust z-score -1.15.
For TMEM186 #3, the entry reads G2 robust z-score 2.03.
Against CACNA1F #1, the entry reads G2 robust z-score -0.292.
Against CACNA1F #2 the deposit lists G2 robust z-score -0.817.
For CACNA1F #3, the entry reads G2 robust z-score -0.877.
